Test results reported in the supplement of paper PMC12067093, “Discovery and optimisation of a covalent ligand for TRIM25 and its application to targeted protein ubiquitination” (Chemical Science, 2025).
Some of the results follow.

Protein sequences, listed by entry. Tags and fused reporters are not part of them. Lines headed by an entry give the natural chain unless they say otherwise; changes in a name come on top.
UniProt Q00613: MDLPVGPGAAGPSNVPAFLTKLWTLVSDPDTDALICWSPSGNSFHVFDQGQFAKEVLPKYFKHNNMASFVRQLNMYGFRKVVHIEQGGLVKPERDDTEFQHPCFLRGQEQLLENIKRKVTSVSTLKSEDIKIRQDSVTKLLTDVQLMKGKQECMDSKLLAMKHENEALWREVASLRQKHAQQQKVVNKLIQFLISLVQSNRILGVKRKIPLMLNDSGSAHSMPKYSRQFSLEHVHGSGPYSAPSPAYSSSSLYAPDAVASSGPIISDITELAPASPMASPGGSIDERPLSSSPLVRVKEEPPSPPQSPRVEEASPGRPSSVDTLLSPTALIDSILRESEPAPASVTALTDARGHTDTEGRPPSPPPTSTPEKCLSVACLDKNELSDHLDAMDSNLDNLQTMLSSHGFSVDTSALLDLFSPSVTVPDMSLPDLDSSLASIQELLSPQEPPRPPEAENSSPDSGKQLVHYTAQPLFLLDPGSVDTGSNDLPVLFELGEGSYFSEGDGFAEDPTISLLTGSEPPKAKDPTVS
UniProt Q00839, whole entry, looked up: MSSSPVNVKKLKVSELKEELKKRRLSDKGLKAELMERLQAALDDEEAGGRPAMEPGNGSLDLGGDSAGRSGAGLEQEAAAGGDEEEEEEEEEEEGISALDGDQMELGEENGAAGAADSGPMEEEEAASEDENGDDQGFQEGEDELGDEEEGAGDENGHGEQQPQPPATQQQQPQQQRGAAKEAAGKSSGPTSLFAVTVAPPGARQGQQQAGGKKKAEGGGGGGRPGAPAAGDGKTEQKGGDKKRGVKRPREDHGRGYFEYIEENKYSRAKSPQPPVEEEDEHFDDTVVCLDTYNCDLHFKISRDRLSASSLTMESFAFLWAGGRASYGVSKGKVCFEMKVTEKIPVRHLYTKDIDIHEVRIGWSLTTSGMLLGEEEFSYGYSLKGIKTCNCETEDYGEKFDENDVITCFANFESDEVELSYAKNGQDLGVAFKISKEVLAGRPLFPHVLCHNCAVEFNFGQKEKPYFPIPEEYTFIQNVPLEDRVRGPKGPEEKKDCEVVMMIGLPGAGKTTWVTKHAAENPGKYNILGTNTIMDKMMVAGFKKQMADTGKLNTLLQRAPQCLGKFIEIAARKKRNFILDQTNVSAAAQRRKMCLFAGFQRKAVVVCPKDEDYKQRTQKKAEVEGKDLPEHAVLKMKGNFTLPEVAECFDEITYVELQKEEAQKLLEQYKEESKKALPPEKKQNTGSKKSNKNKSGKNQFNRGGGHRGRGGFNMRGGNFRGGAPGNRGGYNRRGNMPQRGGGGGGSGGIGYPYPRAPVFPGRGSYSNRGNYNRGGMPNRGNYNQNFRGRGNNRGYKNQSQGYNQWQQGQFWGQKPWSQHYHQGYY
UniProt P09651: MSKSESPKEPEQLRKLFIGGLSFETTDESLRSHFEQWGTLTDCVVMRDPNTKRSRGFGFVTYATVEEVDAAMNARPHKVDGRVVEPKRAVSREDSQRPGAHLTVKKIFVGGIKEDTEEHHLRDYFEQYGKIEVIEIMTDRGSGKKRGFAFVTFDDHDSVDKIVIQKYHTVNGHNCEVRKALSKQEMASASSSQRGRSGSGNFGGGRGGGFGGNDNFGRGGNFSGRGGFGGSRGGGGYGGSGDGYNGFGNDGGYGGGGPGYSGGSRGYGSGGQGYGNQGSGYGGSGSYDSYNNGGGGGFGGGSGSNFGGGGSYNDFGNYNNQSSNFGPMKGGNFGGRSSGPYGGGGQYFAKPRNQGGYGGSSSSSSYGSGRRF
UniProt P38646: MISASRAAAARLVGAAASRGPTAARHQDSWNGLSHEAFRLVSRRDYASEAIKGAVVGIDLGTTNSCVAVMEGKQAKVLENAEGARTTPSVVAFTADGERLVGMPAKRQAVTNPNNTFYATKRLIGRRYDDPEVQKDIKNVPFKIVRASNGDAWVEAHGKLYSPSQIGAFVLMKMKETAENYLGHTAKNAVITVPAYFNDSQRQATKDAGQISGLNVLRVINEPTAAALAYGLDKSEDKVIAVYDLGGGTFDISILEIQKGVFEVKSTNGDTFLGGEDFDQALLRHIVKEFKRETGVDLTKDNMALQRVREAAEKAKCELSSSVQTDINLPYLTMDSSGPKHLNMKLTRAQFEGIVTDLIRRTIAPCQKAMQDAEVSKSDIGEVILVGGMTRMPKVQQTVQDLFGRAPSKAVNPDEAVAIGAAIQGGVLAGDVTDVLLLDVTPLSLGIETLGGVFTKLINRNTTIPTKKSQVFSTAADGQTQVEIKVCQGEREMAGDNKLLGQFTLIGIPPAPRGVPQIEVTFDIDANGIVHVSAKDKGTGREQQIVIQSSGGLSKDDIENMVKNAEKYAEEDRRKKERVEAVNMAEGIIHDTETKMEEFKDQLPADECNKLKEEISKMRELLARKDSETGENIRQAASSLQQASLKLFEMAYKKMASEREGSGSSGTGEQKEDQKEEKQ
UniProt P11142, whole entry, looked up: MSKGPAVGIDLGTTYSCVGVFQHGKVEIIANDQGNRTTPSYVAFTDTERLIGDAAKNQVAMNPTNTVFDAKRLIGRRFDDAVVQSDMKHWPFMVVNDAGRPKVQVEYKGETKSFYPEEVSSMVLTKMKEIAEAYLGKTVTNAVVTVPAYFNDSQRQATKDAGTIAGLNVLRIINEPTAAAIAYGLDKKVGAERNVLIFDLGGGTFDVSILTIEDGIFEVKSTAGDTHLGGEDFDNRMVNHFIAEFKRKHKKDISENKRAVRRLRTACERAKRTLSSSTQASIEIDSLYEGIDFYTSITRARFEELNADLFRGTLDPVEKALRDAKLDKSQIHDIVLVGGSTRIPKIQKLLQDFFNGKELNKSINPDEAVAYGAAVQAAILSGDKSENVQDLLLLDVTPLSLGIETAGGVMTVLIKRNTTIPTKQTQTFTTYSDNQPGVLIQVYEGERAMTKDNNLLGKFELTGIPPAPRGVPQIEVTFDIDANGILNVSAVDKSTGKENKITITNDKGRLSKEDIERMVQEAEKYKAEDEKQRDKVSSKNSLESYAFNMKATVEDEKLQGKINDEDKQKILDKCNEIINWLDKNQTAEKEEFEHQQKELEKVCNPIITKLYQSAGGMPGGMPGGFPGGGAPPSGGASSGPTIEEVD
UniProt O95757: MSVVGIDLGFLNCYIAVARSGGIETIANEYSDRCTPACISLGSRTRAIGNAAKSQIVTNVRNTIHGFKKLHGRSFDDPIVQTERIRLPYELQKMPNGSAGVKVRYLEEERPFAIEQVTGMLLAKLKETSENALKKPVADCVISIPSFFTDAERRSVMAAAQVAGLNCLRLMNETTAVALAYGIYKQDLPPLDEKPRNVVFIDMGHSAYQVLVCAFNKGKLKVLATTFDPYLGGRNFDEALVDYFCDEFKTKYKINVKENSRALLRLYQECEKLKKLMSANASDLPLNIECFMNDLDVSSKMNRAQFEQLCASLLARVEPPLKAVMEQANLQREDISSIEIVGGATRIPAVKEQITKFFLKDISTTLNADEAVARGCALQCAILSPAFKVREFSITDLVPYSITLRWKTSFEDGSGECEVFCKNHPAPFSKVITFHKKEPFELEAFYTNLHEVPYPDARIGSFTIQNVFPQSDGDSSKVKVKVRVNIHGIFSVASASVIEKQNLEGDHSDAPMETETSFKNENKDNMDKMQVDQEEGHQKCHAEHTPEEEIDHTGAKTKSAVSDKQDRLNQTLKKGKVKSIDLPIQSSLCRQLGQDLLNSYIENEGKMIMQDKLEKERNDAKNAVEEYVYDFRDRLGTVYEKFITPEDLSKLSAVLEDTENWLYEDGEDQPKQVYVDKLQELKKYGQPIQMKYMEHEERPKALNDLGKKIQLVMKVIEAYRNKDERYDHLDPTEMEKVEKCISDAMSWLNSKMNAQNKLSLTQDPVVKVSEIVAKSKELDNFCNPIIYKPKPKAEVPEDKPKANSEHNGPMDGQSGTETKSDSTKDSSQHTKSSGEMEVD
UniProt Q13151: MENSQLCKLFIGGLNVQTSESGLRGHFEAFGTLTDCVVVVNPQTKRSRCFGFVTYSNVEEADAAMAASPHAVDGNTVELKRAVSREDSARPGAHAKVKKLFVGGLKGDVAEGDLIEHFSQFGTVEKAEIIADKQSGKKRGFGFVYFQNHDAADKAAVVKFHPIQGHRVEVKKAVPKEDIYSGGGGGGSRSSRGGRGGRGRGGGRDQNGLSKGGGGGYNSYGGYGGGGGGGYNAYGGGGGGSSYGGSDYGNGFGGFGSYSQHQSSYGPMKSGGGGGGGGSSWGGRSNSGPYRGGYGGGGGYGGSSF
UniProt P51991: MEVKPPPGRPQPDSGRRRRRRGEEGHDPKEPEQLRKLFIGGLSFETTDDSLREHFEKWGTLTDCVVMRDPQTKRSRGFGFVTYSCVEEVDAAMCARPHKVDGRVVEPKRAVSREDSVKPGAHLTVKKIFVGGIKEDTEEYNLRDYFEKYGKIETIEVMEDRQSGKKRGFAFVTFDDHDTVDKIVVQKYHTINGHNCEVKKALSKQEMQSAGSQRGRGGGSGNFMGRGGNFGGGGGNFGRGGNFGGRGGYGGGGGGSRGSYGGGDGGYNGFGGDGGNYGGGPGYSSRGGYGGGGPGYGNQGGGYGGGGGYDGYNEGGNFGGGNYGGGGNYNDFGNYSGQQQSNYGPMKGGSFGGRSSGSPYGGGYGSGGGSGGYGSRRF
UniProt P08238, whole entry, looked up: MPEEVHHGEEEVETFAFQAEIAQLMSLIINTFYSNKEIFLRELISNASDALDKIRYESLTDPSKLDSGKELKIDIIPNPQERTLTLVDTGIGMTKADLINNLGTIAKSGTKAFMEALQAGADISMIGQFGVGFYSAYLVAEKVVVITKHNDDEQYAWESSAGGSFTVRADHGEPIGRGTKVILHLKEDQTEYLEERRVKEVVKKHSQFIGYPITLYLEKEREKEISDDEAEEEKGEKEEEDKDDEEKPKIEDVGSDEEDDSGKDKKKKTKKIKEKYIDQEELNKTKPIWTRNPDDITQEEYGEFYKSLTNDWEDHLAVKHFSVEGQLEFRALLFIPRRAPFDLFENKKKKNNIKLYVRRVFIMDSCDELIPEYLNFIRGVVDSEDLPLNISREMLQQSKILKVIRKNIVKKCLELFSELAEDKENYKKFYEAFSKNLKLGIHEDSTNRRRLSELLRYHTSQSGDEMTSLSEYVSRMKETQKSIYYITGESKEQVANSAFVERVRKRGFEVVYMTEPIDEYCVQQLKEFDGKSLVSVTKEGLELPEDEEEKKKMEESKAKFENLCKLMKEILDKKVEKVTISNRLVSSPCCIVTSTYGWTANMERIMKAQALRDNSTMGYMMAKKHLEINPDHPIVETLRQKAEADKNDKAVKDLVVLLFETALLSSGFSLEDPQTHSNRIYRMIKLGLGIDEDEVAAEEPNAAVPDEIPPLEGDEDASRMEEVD

Compound: CC1Cc2ccccc2N1C(=O)C1CCCN(C1)C(=O)CCl (mixture of isomers) [TRIM25 ligand 11 (diastereomer mixture)]
Experiment: probe-labelled cysteine peptide fold change vs DMSO (competition) (log2 fold change); higher = less target engagement (more negative = stronger competition)
Conditions: THP-1, incubation time: 4 h
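Note: competitive chemoproteomic profiling in live THP-1 cells with an iodoacetamide desthiobiotin (IA-DTB) probe, comparing probe-labelled peptide intensities in compound-treated cells against DMSO-treated controls.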

Target: HSF1_Q00613_378_CLSVACLDK (UniProt Q00613)
- probe-labelled cysteine peptide fold change (10 µM): 0.0176
- probe-labelled cysteine peptide fold change (50 µM): -0.171

Target: HSF1_Q00613_103_DDTEFQHPCFLR (UniProt Q00613)
- probe-labelled cysteine peptide fold change (10 µM): 0.0641
- probe-labelled cysteine peptide fold change (50 µM): -0.143

Target: HNRNPU_Q00839_594_MCLFAGFQR (UniProt Q00839)
- probe-labelled cysteine peptide fold change (10 µM): -0.121
- probe-labelled cysteine peptide fold change (50 µM): -0.0218

Target: HNRNPA1_P09651_43_SHFEQWGTLTDCVVMR (UniProt P09651)
- probe-labelled cysteine peptide fold change (10 µM): 0.0151
- probe-labelled cysteine peptide fold change (50 µM): -0.061

Target: HSPA9_P38646_608_DQLPADECNK (UniProt P38646)
- probe-labelled cysteine peptide fold change (10 µM): 0.0667
- probe-labelled cysteine peptide fold change (50 µM): 0.182

Target: HSPA8_P11142_17_SKGPAVGIDLGTTYSCVGVFQHGK (UniProt P11142)
- probe-labelled cysteine peptide fold change (10 µM): -0.203
- probe-labelled cysteine peptide fold change (50 µM): -0.105

Target: HSP90AA1_P07900_529_HGLEVIYMIEPIDEYCVQQLK (UniProt P07900)
- probe-labelled cysteine peptide fold change (10 µM): 0.00229
- probe-labelled cysteine peptide fold change (50 µM): -0.0105

Target: HNRNPU_Q00839_389+391_TCNCETEDYGEK (UniProt Q00839)
- probe-labelled cysteine peptide fold change (10 µM): 0.302
- probe-labelled cysteine peptide fold change (50 µM): 0.197

Target: HSPA9_P38646_366_TIAPCQK (UniProt P38646)
- probe-labelled cysteine peptide fold change (10 µM): -0.177
- probe-labelled cysteine peptide fold change (50 µM): 0.00341

Target: HSPA4L_O95757_417+421_TSFEDGSGECEVFCK (UniProt O95757)
- probe-labelled cysteine peptide fold change (10 µM): 0.0475
- probe-labelled cysteine peptide fold change (50 µM): -0.0884

Target: HNRNPA0_Q13151_7_MENSQLCK (UniProt Q13151)
- probe-labelled cysteine peptide fold change (10 µM): -0.164
- probe-labelled cysteine peptide fold change (50 µM): 0.025

Target: HNRNPK_P61978_145_GSDFDCELR (UniProt P61978)
- probe-labelled cysteine peptide fold change (10 µM): -0.031
- probe-labelled cysteine peptide fold change (50 µM): -0.0896

Target: HNRNPA3_P51991_94_GFGFVTYSCVEEVDAAMCARPHK (UniProt P51991)
- probe-labelled cysteine peptide fold change (10 µM): -0.197
- probe-labelled cysteine peptide fold change (50 µM): -0.119

Target: HSP90AB1_P08238_521_KRGFEVVYMTEPIDEYCVQQLK (UniProt P08238)
- probe-labelled cysteine peptide fold change (10 µM): -0.0445
- probe-labelled cysteine peptide fold change (50 µM): -0.285
